This passage reports MIC results from patent publication US20200093807A1, “NEW USE OF RIFAMYCIN-NITROIMIDAZOLE CONJUGATE MOLECULE” (TenNor Therapeutics Limited, priority 2017, published 2020).

≈ marks a conversion by molar mass, not a printed value.

Common to all, as to test: MIC, anaerobic agar dilution (CLSI)
Common to all, as to format: cell-based

The test system of experiment [1] is Anaerococcus (Anaerococcus(prevotii)) ATCC 9321. As to conditions: 35° C., 42-48 hours.
Experiment [2] deals with Bacteroides fragilis (QC) ATCC 25285. To be noted: ATCC25285, 35° C., 42-48 hours.
For experiment [3], the system named is Bacteroides fragilis (MET^R) MMX 3387. As to conditions: 35° C., 42-48 hours.
The test system of experiment [4] is Bacteroides gracilis ATCC 33236. To be noted: Campylobacter gracilis, ATCC33236, 35° C., 42-48 hours.
The test system of experiment [5] is Eubacterium (rectale) ATCC 33656. To be noted: Agathobacter rectalis, ATCC33656, 35° C., 42-48 hours.
Experiment [6] deals with Lactobacillus gasseri ATCC 33323. To be noted: ATCC33323, 35° C., 42-48 hours.
The test system of experiment [7] is Lactobacillus jensenii ATCC 25258. As to conditions: ATCC25258, 35° C., 42-48 hours.
Experiment [8] has as its system Peptostreptococcus (magnus) ATCC 14956. As to conditions: Finegoldia magna, ATCC14956, 35° C., 42-48 hours.
In experiment [9] the test system is Veionella parvula ATCC 17745. As to conditions: 35° C., 42-48 hours.

Take `CCC[C@@H]1C[C@@H](C(=O)N[C@@H]([C@H]2O[C@H](SC)[C@H](O)[C@@H](O)[C@H]2O)[C@H](C)Cl)N(C)C1` [Clindamycin]: the MIC in experiment [1] turned out to be 0.06 µg/mL (≈ 0.141 µM); in experiment [2], 1 µg/mL (≈ 2.35 µM); in experiment [3], 2 µg/mL (≈ 4.71 µM); in experiment [4], 0.06 µg/mL (≈ 0.141 µM); in [5] it was 0.008 µg/mL (≈ 0.0188 µM); in experiment [6] it was 4 µg/mL (≈ 9.41 µM). In addition, the minimal inhibitory concentration (MIC) in experiment [7] was found to be 0.5 µg/mL (≈ 1.18 µM); in experiment [8], 1 µg/mL (≈ 2.35 µM); in [9] it was 32 µg/mL (≈ 75.3 µM).
